Our source for the binding values is paper PMC2944878.

These are yes or no findings as the source states them, for the method shown. Sequences can lack the tags named with a protein.

For this test, the target named is T1, full-length HMT-1 as split-ubiquitin fusion (HMT-1-CubPLV bait; HMT-1-NubG prey) (C. elegans) (UniProt G5EFD4).
T1 sequence: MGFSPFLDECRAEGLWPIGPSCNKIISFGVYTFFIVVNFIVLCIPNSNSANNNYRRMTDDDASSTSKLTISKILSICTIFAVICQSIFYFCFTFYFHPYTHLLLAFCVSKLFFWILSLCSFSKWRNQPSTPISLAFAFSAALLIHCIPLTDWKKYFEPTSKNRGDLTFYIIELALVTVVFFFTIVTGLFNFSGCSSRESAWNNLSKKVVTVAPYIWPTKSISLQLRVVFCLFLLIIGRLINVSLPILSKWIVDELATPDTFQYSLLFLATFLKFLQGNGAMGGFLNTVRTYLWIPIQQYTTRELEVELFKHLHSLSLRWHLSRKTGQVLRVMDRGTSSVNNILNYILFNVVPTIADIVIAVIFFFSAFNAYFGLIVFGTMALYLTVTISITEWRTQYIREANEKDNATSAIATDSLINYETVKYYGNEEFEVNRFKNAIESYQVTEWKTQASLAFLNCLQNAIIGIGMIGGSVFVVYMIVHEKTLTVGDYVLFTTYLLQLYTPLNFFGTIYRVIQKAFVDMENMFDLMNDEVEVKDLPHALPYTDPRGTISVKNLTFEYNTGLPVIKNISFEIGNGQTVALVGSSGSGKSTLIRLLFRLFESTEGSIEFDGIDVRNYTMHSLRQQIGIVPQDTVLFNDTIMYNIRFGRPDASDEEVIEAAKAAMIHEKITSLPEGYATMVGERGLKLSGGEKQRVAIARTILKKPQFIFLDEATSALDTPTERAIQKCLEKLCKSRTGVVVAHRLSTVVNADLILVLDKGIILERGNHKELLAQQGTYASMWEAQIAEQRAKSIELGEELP
The test is described as follows: two-hybrid; mating-based split-ubiquitin system (mbSUS) in diploid S. cerevisiae: CubPLV bait and NubG prey; growth on SC medium lacking adenine and histidine and β-galactosidase activity; bait repressed by 75 µM methionine as control.

As for “N-terminal extension domain (NTE) of HMT-1 fused to NubG (C. elegans) (domain or fragment)”, the binding result is listed as “no binding”.
